{
  "source": "patent US20120328713A1",
  "about": "“Articles of Manufacture with Improved Anti-microbial Properties” (priority 2009, published 2012)",
  "test_system": "Escherichia coli (ATCC 25922)",
  "experiment": "MBEC P&G assay in dilutions of urine",
  "assay_type": "cell-based",
  "protocol": "The effects of silver (III) periodate and silver nitrate in different dilutions of urine (0.001%, 0.01%, 0.1%, 1%, 10%, 50%) using the MBEC™ P&G assay were tested against Escherichia coli (ATCC 25922)The challenge time was 4 hours. The tested concentration range for both silver compounds was 500 to 7.8 ppm.",
  "note": "Some results were stated once for a whole list of compounds, not compound by compound. At least one compound was matched to its structure with a doubt left.",
  "data": [
    {"smiles": "[Ag+3].[Na+].[Na+].[Na+].[Na+].[Na+].[O-][I+]([O-])([O-])([O-])([O-])O.[O-][I+]([O-])([O-])([O-])([O-])O", "note": "[silver (III) periodate, sodium diperiodatoargentate]", "values": [
      {"measurement": "MBC cut-off point", "setting": "50.0% urine", "value": "≤ 7.8", "unit": "ppm"},
      {"measurement": "MBEC cut-off point", "setting": "any concentration of urine, 4 hours", "value": "greater than 500 ppm"},
      {"measurement": "MBC cut-off point", "setting": "urine concentrations of 1.0% or lower", "value": "less than 7.8 ppm"}
    ]}
  ]
}
